Consider 60 sequences from article PMC7862700.

The chains behind the UniProt entries cited, without tags or fusion partners. Where a name states a change or a piece, a line headed by the entry shows the natural chain unless it says otherwise.
UniProt Q00613: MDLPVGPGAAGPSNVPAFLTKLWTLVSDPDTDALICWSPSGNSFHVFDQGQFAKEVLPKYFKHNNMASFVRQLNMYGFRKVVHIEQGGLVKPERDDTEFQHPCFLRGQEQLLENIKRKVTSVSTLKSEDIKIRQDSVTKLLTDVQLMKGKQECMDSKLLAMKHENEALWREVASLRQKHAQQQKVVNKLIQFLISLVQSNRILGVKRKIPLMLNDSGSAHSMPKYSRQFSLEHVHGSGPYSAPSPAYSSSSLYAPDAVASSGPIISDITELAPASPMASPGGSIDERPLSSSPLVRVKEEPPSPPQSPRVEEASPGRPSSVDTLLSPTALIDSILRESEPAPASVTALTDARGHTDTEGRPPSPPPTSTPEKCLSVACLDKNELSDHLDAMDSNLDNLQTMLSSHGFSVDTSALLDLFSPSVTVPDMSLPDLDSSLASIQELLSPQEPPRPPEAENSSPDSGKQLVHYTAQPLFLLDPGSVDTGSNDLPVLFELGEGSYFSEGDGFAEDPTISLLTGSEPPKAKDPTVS

In one assay the target is HSF1 (UniProt Q00613). The assay can be described thus: DAPPL (digital affinity profiling via proximity ligation, sequencing). As to conditions: 10 mM Tris-HCl pH 7.5, 50 mM NaCl, 1 mM DTT, 4% glycerol, room temperature, 30 min; GST-TFs on glutathione beads, 16-mer random dsDNA library, 0.1% …; high values mean tight binding; double strand, one strand shown; scale: fold enrichment (6-mer frequency, TF over GST control).

The target of another assay is T1, ELF2 (UniProt Q15723).
T1 sequence: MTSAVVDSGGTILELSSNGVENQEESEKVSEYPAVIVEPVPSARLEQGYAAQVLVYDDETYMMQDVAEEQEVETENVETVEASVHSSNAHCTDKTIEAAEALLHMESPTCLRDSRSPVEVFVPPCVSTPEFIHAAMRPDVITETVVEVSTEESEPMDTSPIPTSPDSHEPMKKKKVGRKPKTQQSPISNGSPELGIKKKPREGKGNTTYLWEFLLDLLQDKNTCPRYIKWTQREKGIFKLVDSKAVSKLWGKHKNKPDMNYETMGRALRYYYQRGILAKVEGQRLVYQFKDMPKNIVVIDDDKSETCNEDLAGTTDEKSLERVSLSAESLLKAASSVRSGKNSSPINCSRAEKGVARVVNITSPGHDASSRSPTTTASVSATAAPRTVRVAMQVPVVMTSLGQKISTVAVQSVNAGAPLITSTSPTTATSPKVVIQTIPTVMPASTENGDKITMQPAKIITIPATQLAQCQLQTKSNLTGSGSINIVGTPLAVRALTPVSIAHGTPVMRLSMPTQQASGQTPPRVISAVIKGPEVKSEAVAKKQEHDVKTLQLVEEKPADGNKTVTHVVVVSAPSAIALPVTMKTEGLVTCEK
The assay is described as above. As to conditions: 10 mM Tris-HCl pH 7.5, 50 mM NaCl, 1 mM DTT, 4% glycerol, room temperature, 30 min; GST-TFs on glutathione beads, 16-mer random dsDNA library, 0.1% …; high values mean tight binding; double strand, one strand shown; scale: fold enrichment (6-mer frequency, TF over GST control).

The entries are a selection whose mix differs from that of the whole data set. For part of these data: At the low end of the ranking the order means little. The list shows a part of the results. For part of these data: The source does not settle which construct or isoform was used.

For the sequence GAATCA, the values for the binding signal with HSF1 and with ELF2 were 1.06 and 0.934, respectively.

Consider CGGTTT, for which the binding signal with HSF1 turned out to be 0.935; with ELF2, 1.4.

For the sequence GGCCTC, the binding signal with HSF1 was 0.873; in the assay with ELF2, 1.05.

With TGGTCG, the binding signal in the assay with HSF1 turned out to be 0.75; in the assay with ELF2, 0.884.

Take ATGCCT: the binding signal turned out to be 1.13 in the assay with HSF1 and 1.26 in the assay with ELF2.

Turning to TCAAGC, the binding signal in the assay with HSF1 stood at 0.984; in the assay with ELF2, 0.947.

As to AAATAG, the binding signal in the assay with HSF1 came out at 1.09; with ELF2 it was 1.21.

CTACCC: the binding signal with HSF1 turned out to be 1.04; with ELF2 it was 1.29.

In the case of ACTATA, the binding signal with HSF1 amounted to 1.26; with ELF2, 1.27.

For CAACCG, the binding signal in the assay with HSF1 is 0.741; with ELF2 it was 1.07.

Turning to AAACAA, the figures for the binding signal with HSF1 and with ELF2 were 1.23 and 1.33, respectively.

For CAACAC, the values for the binding signal with HSF1 and in the assay with ELF2 were 0.86 and 1.13, respectively.

Take GCACTC: the results for the binding signal with HSF1 and with ELF2 were 1.06 and 1.26, respectively.

Regarding AATGAC, the binding signal with HSF1 was 1.22; in the assay with ELF2 it was 1.36.

In the case of AATCCT, the binding signal in the assay with HSF1 was determined as 2.25; in the assay with ELF2, 1.32.

Consider ATAACA, for which the binding signal in the assay with HSF1 was determined as 1.2; in the assay with ELF2, 1.24.

As for TAGCGA, the binding signal in the assay with HSF1 was 1.22; in the assay with ELF2, 0.998.

Consider GCCCTG, for which the figures for the binding signal with HSF1 and with ELF2 were 0.795 and 0.985, respectively.

On to CTCCGA, for which the binding signal with HSF1 was found to be 1.49; with ELF2, 1.29.

With CCACAC, the binding signal is 0.884 with HSF1 and 1.02 with ELF2.

Turning to TTTTAT, the binding signal with HSF1 turned out to be 1.46; with ELF2, 1.32.

Turning to CCACGT, the binding signal in the assay with HSF1 is 0.817; with ELF2, 0.942.

For CTTACA, the binding signal was found to be 1.31 with HSF1 and 1.27 with ELF2.

On to ATGGCA, for which the binding signal with HSF1 was determined as 1.1; with ELF2, 1.22.

In the case of GTTGCG, the figures for the binding signal in the assay with HSF1 and in the assay with ELF2 were 0.8 and 1.03, respectively.

Regarding TAAGAA, the results for the binding signal in the assay with HSF1 and with ELF2 were 1.77 and 1.03, respectively.

Turning to TGGCGT, the binding signal with HSF1 came out at 0.844; with ELF2 it was 0.953.

In the case of GCACGC, the results for the binding signal with HSF1 and in the assay with ELF2 were 0.894 and 1.01, respectively.

As for TCCCGA, the figures for the binding signal in the assay with HSF1 and in the assay with ELF2 were 2.34 and 1.32, respectively.

On to CCTTTT, for which the binding signal turned out to be 1.37 in the assay with HSF1 and 1.53 with ELF2.

As to CATCAC, the values for the binding signal with HSF1 and with ELF2 were 0.899 and 1.09, respectively.

As to CCCCCT, the binding signal in the assay with HSF1 was 1.02; with ELF2, 1.24.

In the case of CCAAGT, the figures for the binding signal with HSF1 and with ELF2 were 0.793 and 0.876, respectively.

As to GGCCTG, the binding signal with HSF1 was determined as 0.765; with ELF2, 0.867.

In the case of GTCCGG, the binding signal with HSF1 came to 0.521; in the assay with ELF2 it was 1.1.

GGTCAC: the binding signal with HSF1 was found to be 0.737; in the assay with ELF2, 0.948.

Regarding GACTCG, the binding signal with HSF1 stood at 0.914; in the assay with ELF2, 0.854.

For the sequence GGTCTA, the binding signal with HSF1 stood at 0.953; with ELF2, 1.03.

As for AATGTG, the binding signal amounted to 0.93 with HSF1 and 0.954 with ELF2.

For TGCAAT, the binding signal with HSF1 was 0.983; with ELF2, 1.15.

TCGCGT: the binding signal with HSF1 came to 1.04; in the assay with ELF2 it was 0.904.

With CGATGT, the results for the binding signal with HSF1 and in the assay with ELF2 were 0.952 and 1.05, respectively.

With CAGCGC, the binding signal was determined as 0.843 in the assay with HSF1 and 0.944 with ELF2.

Take TTGATC: the binding signal in the assay with HSF1 was determined as 1.48; in the assay with ELF2, 1.17.

TGTCAC: the figures for the binding signal in the assay with HSF1 and with ELF2 were 0.861 and 1.15, respectively.

Take GCCTAC: the binding signal with HSF1 was determined as 1.01; with ELF2, 1.21.

Regarding GTCTCT, the binding signal in the assay with HSF1 was 1.12; in the assay with ELF2, 1.18.

With GTCCTG, the results for the binding signal in the assay with HSF1 and with ELF2 were 0.856 and 1.14, respectively.

For TTTCGG, the binding signal in the assay with HSF1 worked out at 1.39; with ELF2 it was 1.14.

GCACCT: the results for the binding signal with HSF1 and with ELF2 were 0.944 and 1.01, respectively.

For the sequence GTAATG, the binding signal in the assay with HSF1 is 0.934; with ELF2 it was 1.07.

In the case of TAGCAG, the binding signal worked out at 1.12 with HSF1 and 1.03 with ELF2.

Consider TCGTTA, for which the binding signal with HSF1 worked out at 0.938; with ELF2, 0.891.

Consider AAGGCC, for which the values for the binding signal with HSF1 and with ELF2 were 0.83 and 0.863, respectively.

In the case of CCCTGT, the figures for the binding signal with HSF1 and with ELF2 were 0.88 and 1.06, respectively.

Consider GGGCTC, for which the binding signal in the assay with HSF1 turned out to be 0.92; with ELF2, 1.14.

In the case of CATGTA, the binding signal is 0.955 in the assay with HSF1 and 1.02 with ELF2.

With TCAGTT, the values for the binding signal with HSF1 and with ELF2 were 0.844 and 1.06, respectively.

As to CATCGT, the binding signal with HSF1 was 0.746; with ELF2 it was 0.861.

In the case of CATGAC, the binding signal with HSF1 amounted to 0.966; with ELF2, 1.13.
